Patent US11903994B2, “Dosing regimens” (Apellis Pharmaceuticals, Inc., priority 2015, dated 2024)
Part of at least one peptide drawing is inferred or uncertain, most often the ends.

Legend:
[1] = system: RBCs from a patient with PNH; experiment: Modified Ham's test, flow cytometry for CD59 and C3d; type: cell-based, human; settings: for % C′3 (Type I cells): ctrl no lysis 0.09, max lysis 3.2; for % C′3 (Type III cells): ctrl no lysis 0.29, max lysis 0.96; for % C′3 (Type II cells): ctrl no lysis 1.22, max lysis 13.48
[2] = system: inflammatory cytokines in the lungs; experiment: Ascaris suum challenge model; type: in vivo, cynomolgus monkeys; settings: nebulized, 20 mg/day or 15 mg/kg/d for 14 consecutive days; during treatment and 28 days after cessation

CC[C@H](C)[C@H](NC(C)=O)C(=O)N[C@H]1CSSC[C@@H](C(=O)N[C@H](C(N)=O)[C@@H](C)O)NC(=O)[C@H](CCCNC(=N)N)NC(=O)[C@H](Cc2c[nH]cn2)NC(=O)[C@H](C)NC(=O)CNC(=O)[C@H](Cc2c[nH]c3ccccc23)NC(=O)[C@H](CC(=O)O)NC(=O)[C@H](CCC(N)=O)NC(=O)[C@H](Cc2cn(C)c3ccccc23)NC(=O)[C@H](C(C)C)NC1=O [CA28]
% C′3 (Type I cells) ([1]; 1 micrograms/ml): 1.7%
% C′3 (Type III cells) ([1]; 1 micrograms/ml): 1.2%
% C′3 (Type II cells) ([1]; 1 micrograms/ml): 10.06%
% C′3 (Type I cells) ([1]; 4 micrograms/ml): 1.76%
% C′3 (Type III cells) ([1]; 4 micrograms/ml): 0.83%
% C′3 (Type II cells) ([1]; 4 micrograms/ml): 10.42%
% C′3 (Type I cells) ([1]; 8 micrograms/ml): 1.66%
% C′3 (Type III cells) ([1]; 8 micrograms/ml): 0.7%
% C′3 (Type II cells) ([1]; 8 micrograms/ml): 11.12%
% C′3 (Type I cells) ([1]; 15 micrograms/ml): 1.93%
% C′3 (Type III cells) ([1]; 15 micrograms/ml): 0.96%
% C′3 (Type II cells) ([1]; 15 micrograms/ml): 8.63%
% C′3 (Type I cells) ([1]; 25 micrograms/ml): 1.84%
% C′3 (Type III cells) ([1]; 25 micrograms/ml): 0.75%
% C′3 (Type II cells) ([1]; 25 micrograms/ml): 9.3%
% C′3 (Type I cells) ([1]; 100 micrograms/ml): 0.08%
% C′3 (Type III cells) ([1]; 100 micrograms/ml): 0.1%
% C′3 (Type II cells) ([1]; 100 micrograms/ml): 0.92%
% C′3 (Type I cells) ([1]; 500 micrograms/ml): 0.14%
% C′3 (Type III cells) ([1]; 500 micrograms/ml): 0.09%
% C′3 (Type II cells) ([1]; 500 micrograms/ml): 0.83%
levels of inflammatory cytokines in broncheoalveolar lavage fluid after allergen challenge [2]: had a pharmacological effect in controlling the levels of inflammatory cytokines in the lungs
